The text below walks through data of PMC3229523, “Identification of Lactoferricin B Intracellular Targets Using an Escherichia coli Proteome Chip” (PLoS ONE, 2011).

The chains behind the UniProt entries cited, without tags or fusion partners. Residues count along the entry.
UniProt P0DP89: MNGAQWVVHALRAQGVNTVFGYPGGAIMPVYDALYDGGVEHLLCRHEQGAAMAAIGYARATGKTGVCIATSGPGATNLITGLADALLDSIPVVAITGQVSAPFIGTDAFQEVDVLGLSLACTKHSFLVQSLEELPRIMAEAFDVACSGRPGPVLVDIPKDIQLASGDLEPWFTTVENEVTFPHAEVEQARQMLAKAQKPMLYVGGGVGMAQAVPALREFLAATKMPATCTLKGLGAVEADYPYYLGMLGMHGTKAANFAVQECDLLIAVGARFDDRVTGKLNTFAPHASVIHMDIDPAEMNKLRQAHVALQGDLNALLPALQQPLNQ
UniProt P02769, residues 25-607: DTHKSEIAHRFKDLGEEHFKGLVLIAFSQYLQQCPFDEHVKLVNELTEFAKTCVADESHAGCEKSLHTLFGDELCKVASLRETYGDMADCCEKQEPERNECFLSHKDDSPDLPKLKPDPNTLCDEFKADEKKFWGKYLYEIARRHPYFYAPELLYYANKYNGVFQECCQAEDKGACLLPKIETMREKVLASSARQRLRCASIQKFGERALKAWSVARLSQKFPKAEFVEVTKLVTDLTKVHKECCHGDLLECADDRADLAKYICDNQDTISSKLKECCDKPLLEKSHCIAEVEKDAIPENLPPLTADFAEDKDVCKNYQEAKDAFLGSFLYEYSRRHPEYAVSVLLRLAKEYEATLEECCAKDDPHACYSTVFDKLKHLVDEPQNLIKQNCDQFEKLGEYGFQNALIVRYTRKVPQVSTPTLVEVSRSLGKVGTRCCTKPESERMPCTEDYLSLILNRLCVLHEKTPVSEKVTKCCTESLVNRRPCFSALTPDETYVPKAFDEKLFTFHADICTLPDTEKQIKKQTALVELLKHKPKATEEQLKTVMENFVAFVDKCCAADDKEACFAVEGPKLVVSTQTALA
UniProt P75838: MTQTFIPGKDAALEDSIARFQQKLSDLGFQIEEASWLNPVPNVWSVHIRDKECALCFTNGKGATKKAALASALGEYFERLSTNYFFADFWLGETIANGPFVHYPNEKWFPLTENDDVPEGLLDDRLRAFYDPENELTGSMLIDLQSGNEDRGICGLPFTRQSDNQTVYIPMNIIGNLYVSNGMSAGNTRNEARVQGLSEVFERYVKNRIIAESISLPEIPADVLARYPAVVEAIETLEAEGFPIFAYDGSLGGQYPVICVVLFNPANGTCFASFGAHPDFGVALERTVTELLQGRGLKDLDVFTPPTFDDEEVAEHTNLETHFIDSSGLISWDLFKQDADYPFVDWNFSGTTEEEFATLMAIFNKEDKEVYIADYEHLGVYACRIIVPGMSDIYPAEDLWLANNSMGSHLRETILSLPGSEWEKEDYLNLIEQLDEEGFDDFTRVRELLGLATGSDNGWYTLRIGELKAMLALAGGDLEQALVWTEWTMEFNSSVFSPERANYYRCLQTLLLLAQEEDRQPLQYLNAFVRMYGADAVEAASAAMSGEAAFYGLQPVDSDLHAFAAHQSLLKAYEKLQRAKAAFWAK
UniProt P0A8Z7: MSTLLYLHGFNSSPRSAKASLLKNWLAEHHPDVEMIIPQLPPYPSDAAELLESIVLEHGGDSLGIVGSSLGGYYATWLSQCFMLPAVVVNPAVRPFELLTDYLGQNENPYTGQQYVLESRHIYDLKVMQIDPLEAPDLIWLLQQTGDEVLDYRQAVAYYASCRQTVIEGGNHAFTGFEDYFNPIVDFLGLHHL

These are yes or no findings as the source states them, for the method shown. Some binding calls cover weakened binding; strength is not graded here.

Test [1] deals with T1, DyLight 549-labeled Lactoferricin B (UniProt P24627).
T1 sequence (peptide, DyLight 549 (NHS ester labelling, sites not stated)): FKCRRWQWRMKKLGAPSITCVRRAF
Nature of the test: fluorescence polarisation; 100 nM DyLight 549-labeled LfcinB as tracer; two-fold serial dilution of protein from 0.4 µM to 0.025 µM in PBS, 0.005% BSA, 0.01% Triton X-100; room temperature, 1 h; compared with BSA; both purified. For orientation: Fluorescence polarisation rises when a labelled molecule tumbles more slowly, as on binding a larger partner.

For another test, the target named is T2, DsbC (E. coli K-12) (UniProt P0AEG6).
T2 sequence: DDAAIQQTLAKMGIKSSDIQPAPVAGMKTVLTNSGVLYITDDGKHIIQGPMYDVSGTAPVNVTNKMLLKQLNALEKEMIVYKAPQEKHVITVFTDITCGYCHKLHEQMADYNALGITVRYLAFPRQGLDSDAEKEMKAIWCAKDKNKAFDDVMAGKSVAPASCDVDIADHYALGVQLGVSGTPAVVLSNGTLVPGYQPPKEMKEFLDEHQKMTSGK
Nature of the test: peptide or protein array; E. coli proteome chip: purified His-tagged proteins printed in duplicate on Fullmoon slides, blocked with 1% BSA; 10 nM N-terminal biotinylated LfcinB with 1% BSA, room temperature, 1 h; detected with DyLight 649-labeled streptavidin, ratio to DyLight 549-labeled anti-His antibody; ProCAT normalisation, local cut-off; triplicate chips; both purified.

Another test deals with T3, YhbN (E. coli K-12) (UniProt P0ADV1).
T3 sequence: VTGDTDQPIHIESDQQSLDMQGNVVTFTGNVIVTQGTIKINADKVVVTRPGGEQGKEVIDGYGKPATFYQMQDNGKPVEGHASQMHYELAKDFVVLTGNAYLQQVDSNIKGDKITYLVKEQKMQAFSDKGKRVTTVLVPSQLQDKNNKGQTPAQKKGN
The description is as above.

The next test has as its target T4, PtsA (E. coli K-12) (UniProt P32670).
T4 sequence: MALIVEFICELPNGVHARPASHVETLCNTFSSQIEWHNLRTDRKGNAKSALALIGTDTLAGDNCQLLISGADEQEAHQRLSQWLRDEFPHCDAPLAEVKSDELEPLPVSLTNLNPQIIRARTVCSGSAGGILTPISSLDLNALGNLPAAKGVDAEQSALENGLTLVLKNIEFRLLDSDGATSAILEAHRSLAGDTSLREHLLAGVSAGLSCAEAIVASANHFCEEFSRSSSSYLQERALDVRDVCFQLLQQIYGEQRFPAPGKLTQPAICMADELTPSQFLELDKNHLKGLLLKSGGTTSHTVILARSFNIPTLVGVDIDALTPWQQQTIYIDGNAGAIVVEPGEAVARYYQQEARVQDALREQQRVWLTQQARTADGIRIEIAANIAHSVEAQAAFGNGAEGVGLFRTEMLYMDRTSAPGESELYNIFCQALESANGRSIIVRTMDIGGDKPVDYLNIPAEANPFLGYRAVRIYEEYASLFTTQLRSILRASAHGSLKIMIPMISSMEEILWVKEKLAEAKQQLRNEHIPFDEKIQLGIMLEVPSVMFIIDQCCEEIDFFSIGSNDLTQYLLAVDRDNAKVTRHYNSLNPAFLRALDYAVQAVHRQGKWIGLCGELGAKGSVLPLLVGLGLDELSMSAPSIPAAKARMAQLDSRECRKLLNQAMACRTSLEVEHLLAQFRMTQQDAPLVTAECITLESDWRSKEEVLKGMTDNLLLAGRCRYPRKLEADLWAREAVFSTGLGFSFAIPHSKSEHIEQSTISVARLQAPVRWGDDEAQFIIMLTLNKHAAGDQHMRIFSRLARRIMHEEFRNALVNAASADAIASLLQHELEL
Described as above.

For a further test, the target named is T5, YrhA (E. coli K-12) (UniProt P46856).
T5 sequence: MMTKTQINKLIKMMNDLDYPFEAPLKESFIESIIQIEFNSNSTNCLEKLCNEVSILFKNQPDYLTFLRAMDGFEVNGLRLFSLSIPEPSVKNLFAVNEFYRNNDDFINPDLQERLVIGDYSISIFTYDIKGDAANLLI
The test is described as above.

The target in another test is T6, DsbG (E. coli K-12) (UniProt P77202).
T6 sequence: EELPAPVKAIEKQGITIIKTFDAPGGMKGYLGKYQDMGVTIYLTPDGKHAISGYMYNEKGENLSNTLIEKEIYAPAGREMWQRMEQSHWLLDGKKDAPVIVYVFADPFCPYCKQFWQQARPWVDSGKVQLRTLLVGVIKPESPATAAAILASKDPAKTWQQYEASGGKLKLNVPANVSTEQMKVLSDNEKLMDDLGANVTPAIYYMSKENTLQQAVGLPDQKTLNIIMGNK
The test is described as above.

The next test concerns the target IlvG (E. coli K-12) (UniProt P0DP89). The description is as above.
A further test has as its target T7, YlbE (E. coli K-12) (UniProt P77129).
T7 sequence: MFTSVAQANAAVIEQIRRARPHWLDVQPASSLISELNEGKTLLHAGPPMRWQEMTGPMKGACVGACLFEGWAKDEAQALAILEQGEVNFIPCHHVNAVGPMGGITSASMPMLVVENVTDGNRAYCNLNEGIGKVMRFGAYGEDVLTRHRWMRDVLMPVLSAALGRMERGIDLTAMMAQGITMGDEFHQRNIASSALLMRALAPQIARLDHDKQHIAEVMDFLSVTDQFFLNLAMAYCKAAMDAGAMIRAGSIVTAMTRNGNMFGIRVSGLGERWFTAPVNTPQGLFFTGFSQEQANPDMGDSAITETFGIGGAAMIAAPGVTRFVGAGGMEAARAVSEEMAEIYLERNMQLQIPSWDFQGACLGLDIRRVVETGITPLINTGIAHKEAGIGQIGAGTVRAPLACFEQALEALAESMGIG
The description is as above.

The target in the next test is T8, YeeL (E. coli K-12) (UniProt P76349).
T8 sequence: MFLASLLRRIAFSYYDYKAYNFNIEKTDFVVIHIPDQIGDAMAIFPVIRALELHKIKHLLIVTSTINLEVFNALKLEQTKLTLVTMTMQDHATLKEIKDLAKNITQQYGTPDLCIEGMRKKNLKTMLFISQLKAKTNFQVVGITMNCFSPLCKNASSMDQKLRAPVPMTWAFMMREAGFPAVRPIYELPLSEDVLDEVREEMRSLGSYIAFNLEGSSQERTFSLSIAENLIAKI
The test is described as above.

The target of another test is T9, YjiV (E. coli K-12) (UniProt P39393).
T9 sequence: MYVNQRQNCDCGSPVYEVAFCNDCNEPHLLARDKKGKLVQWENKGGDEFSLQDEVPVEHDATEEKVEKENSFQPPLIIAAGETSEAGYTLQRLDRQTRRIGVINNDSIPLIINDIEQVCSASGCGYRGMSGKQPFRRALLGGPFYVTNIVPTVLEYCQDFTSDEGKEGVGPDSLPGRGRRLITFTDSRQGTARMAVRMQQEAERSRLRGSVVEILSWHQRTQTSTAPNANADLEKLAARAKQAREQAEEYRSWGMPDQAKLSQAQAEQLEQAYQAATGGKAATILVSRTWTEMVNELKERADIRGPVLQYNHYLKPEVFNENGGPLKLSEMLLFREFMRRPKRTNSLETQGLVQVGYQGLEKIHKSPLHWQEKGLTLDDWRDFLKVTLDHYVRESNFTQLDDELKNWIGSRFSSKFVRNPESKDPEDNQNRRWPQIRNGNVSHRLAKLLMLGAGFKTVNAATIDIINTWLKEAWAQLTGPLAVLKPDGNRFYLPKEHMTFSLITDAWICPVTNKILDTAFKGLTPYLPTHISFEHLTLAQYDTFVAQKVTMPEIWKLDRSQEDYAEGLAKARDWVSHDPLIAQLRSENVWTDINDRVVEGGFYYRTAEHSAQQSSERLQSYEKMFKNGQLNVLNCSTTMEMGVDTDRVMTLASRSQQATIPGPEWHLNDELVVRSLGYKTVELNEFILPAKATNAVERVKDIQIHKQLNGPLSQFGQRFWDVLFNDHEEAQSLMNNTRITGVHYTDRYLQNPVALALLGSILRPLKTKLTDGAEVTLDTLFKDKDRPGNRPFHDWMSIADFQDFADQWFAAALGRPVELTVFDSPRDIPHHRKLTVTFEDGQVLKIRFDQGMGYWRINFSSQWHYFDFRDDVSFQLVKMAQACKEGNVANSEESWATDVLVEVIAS
Described as above.

For a further test, the target named is T10, YifN (E. coli K-12) (UniProt P56259).
T10 sequence: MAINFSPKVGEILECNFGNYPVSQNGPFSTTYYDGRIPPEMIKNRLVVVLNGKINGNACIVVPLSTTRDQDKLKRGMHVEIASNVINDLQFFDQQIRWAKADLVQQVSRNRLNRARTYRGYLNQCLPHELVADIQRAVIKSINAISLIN
The description is as above.

Test [2] has as its target T1, DyLight 549-labeled Lactoferricin B. Nature of the test: fluorescence polarisation; data not shown; DyLight 549-labeled LfcinB with the tested proteins, compared with BSA; both purified.

In the case of “Bovine Serum Albumin (from UniProt P02769 25-607)”, the binding result in [1] was “no binding (tested: 0.4 µM)”.

For the substance “N-terminal biotinylated Lactoferricin B (from UniProt P24627 36-60) (peptide)”, the binding entry with DsbC (E. coli K-12), in the test with YhbN (E. coli K-12), with PtsA (E. coli K-12), with YrhA (E. coli K-12), with DsbG (E. coli K-12) and in the test with IlvG (E. coli K-12) was “binds” each time. The binding entry with YlbE (E. coli K-12), with YeeL (E. coli K-12), with YjiV (E. coli K-12) and in the test with YifN (E. coli K-12) was “binds” each time.

Consider YcaO (from UniProt P75838 1-586), for which, in test [2], the binding result is given as “binds”.

For the substance YqiA (from UniProt P0A8Z7 1-193), the binding entry in test [2] is given as “binds”.
